Measured values from doi:10.1101/2020.02.18.953711 (bioRxiv, 2020).
Results are given in words; binding and its absence hold for the method and conditions named. Some results given as binding are weak or reduced against the parent protein; the word gives no strength. Sequences can lack the tags named with a protein. Each block holds one binder with its values, some of them ahead of it.

Assays:
Experiment in all cases: two-hybrid
[1] = molecular target: T1, C-terminally encoded peptide receptor 2 (CEPR2), MbSUS fusion (Arabidopsis thaliana) (UniProt Q9C7T7)
T1 sequence: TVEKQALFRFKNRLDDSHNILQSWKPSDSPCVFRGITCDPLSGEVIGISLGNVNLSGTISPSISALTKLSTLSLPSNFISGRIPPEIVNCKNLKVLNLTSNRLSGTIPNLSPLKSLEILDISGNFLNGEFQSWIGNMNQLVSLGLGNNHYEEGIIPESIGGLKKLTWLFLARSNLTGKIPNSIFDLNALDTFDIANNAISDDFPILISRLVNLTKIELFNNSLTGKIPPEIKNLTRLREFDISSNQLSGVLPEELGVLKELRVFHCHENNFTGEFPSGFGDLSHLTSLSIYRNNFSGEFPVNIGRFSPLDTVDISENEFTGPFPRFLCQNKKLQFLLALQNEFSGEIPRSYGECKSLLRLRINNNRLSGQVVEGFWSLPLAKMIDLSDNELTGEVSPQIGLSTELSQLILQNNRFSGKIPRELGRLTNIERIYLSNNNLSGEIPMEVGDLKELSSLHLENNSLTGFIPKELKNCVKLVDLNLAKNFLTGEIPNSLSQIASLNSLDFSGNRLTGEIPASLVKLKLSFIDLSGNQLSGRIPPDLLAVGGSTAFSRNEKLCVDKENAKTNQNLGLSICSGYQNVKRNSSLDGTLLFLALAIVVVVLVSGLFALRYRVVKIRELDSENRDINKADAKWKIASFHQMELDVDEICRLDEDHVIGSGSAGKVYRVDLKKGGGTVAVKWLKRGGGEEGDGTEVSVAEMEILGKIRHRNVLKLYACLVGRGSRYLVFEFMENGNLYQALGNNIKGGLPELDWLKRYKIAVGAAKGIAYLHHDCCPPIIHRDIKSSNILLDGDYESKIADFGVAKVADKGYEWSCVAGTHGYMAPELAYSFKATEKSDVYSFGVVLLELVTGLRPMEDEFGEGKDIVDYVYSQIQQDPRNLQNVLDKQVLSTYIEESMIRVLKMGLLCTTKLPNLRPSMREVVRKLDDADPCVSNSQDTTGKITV

[2] = molecular target: T2, NRT1.2 N-terminal (NRT1.2N, 1-231 aa), MbSUS fusion (Arabidopsis thaliana) (UniProt Q8H157)
T2 sequence: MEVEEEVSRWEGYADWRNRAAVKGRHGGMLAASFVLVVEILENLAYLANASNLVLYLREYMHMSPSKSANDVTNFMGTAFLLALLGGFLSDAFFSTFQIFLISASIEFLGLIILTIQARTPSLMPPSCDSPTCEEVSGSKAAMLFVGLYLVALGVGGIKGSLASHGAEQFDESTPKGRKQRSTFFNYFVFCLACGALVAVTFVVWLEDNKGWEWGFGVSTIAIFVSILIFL

[3] = molecular target: T3, NRT1.2 cytosol loop region (NRT1.2^loop, 232-346 aa), MbSUS fusion (Arabidopsis thaliana) (UniProt Q8H157)
T3 sequence: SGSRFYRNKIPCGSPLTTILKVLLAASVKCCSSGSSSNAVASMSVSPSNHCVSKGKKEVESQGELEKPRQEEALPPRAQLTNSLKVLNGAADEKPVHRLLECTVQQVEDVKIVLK

two-hybrid = substrate: T4, C terminus of NRT1.2 (NRT1.2C, 347-585 aa), MbSUS fusion (Arabidopsis thaliana) (UniProt Q8H157)
T4 sequence: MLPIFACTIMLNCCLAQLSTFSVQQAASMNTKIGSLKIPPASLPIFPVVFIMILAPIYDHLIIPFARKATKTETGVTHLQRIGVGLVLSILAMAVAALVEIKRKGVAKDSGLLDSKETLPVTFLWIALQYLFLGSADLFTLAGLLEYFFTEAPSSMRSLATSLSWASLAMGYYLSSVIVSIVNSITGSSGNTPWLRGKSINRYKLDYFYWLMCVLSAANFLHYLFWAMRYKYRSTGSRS

binding [1]: no binding
B1: ABCG40, MbSUS fusion (protein, UniProt Q9M9E1 1-1423)
chain: MEGTSFHQASNSMRRNSSVWKKDSGREIFSRSSREEDDEEALRWAALEKLPTFDRLRKGILTASHAGGPINEIDIQKLGFQDTKKLLERLIKVGDDEHEKLLWKLKKRIDRVGIDLPTIEVRFDHLKVEAEVHVGGRALPTFVNFISNFADKFLNTLHLVPNRKKKFTILNDVSGIVKPGRMALLLGPPSSGKTTLLLALAGKLDQELKQTGRVTYNGHGMNEFVPQRTAAYIGQNDVHIGEMTVRETFAYAARFQGVGSRYDMLTELARREKEANIKPDPDIDIFMKAMSTAGEKTNVMTDYILKILGLEVCADTMVGDDMLRGISGGQKKRVTTGEMLVGPSRALFMDEISTGLDSSTTYQIVNSLRNYVHIFNGTALISLLQPAPETFNLFDDIILIAEGEIIYEGPRDHVVEFFETMGFKCPPRKGVADFLQEVTSKKDQMQYWARRDEPYRFIRVREFAEAFQSFHVGRRIGDELALPFDKTKSHPAALTTKKYGVGIKELVKTSFSREYLLMKRNSFVYYFKFGQLLVMAFLTMTLFFRTEMQKKTEVDGSLYTGALFFILMMLMFNGMSELSMTIAKLPVFYKQRDLLFYPAWVYSLPPWLLKIPISFMEAALTTFITYYVIGFDPNVGRLFKQYILLVLMNQMASALFKMVAALGRNMIVANTFGAFAMLVFFALGGVVLSRDDIKKWWIWGYWISPIMYGQNAILANEFFGHSWSRAVENSSETLGVTFLKSRGFLPHAYWYWIGTGALLGFVVLFNFGFTLALTFLNSLGKPQAVIAEEPASDETELQSARSEGVVEAGANKKRGMVLPFEPHSITFDNVVYSVDMPQEMIEQGTQEDRLVLLKGVNGAFRPGVLTALMGVSGAGKTTLMDVLAGRKTGGYIDGNITISGYPKNQQTFARISGYCEQTDIHSPHVTVYESLVYSAWLRLPKEVDKNKRKIFIEEVMELVELTPLRQALVGLPGESGLSTEQRKRLTIAVELVANPSIIFMDEPTSGLDARAAAIVMRTVRNTVDTGRTVVCTIHQPSIDIFEAFDELFLLKRGGEEIYVGPLGHESTHLINYFESIQGINKITEGYNPATWMLEVSTTSQEAALGVDFAQVYKNSELYKRNKELIKELSQPAPGSKDLYFPTQYSQSFLTQCMASLWKQHWSYWRNPPYTAVRFLFTIGIALMFGTMFWDLGGKTKTRQDLSNAMGSMYTAVLFLGLQNAASVQPVVNVERTVFYREQAAGMYSAMPYAFAQVFIEIPYVLVQAIVYGLIVYAMIGFEWTAVKFFWYLFFMYGSFLTFTFYGMMAVAMTPNHHIASVVSSAFYGIWNLFSGFLIPRPSMPVWWEWYYWLCPVAWTLYGLIASQFGDITEPMADSNMSVKQFIREFYGYREGFLGVVAAMNVIFPLLFAVIFAIGIKSFNFQKR

binding [2]: binds
binding [3]: binds
binding (two-hybrid): binds
B2: UBC32, MbSUS fusion (enzyme, UniProt Q9LSP7 1-309)
chain: MADERYNRKNPAVKRILQEVKEMQANPSDDFMSLPLEENIFEWQFAIRGPGDTEFEGGIYHGRIQLPADYPFKPPSFMLLTPNGRFETNTKICLSISNYHPEHWQPSWSVRTALVALIAFMPTSPNGALGSVDYPKDERRTLAIKSRETPPKYGSPERQKIIDEIHQYILSKATVVPKPLPLECSQAPSIVSEAHSQVEPQEAITVVEERSIATTDTIVDDQIIEETAEAVNTAASVVPAAAPLPAVEVVVKASVSGEQRMARRAAQKPVDDRLFTWAAVGLTIAIMVLLLKKFIKSNGYSTGFMDDQS

binding [1]: no binding
B3: ABCG31, MbSUS fusion (protein, UniProt Q7PC88 1-1426)
chain: MAAASNGSEYFEFDVETGRESFARPSNAETVEQDEEDLRWAAIGRLPSQRQGTHNAILRRSQTQTQTSGYADGNVVQTIDVKKLDRADREMLVRQALATSDQDNFKLLSAIKERLDRVGMEVPKIEVRFENLNIEADVQAGTRALPTLVNVSRDFFERCLSSLRIIKPRKHKLNILKDISGIIKPGRMTLLLGPPGSGKSTLLLALAGKLDKSLKKTGNITYNGENLNKFHVKRTSAYISQTDNHIAELTVRETLDFAARCQGASEGFAGYMKDLTRLEKERGIRPSSEIDAFMKAASVKGEKHSVSTDYVLKVLGLDVCSDTMVGNDMMRGVSGGQRKRVTTGEMTVGPRKTLFMDEISTGLDSSTTFQIVKCIRNFVHLMDATVLMALLQPAPETFDLFDDLILLSEGYMVYQGPREDVIAFFESLGFRLPPRKGVADFLQEVTSKKDQAQYWADPSKPYQFIPVSDIAAAFRNSKYGHAADSKLAAPFDKKSADPSALCRTKFAISGWENLKVCFVRELLLIKRHKFLYTFRTCQVGFVGLVTATVFLKTRLHPTSEQFGNEYLSCLFFGLVHMMFNGFSELPLMISRLPVFYKQRDNSFHPAWSWSIASWLLRVPYSVLEAVVWSGVVYFTVGLAPSAGRFFRYMLLLFSVHQMALGLFRMMASLARDMVIANTFGSAAILIVFLLGGFVIPKADIKPWWVWGFWVSPLSYGQRAIAVNEFTATRWMTPSAISDTTIGLNLLKLRSFPTNDYWYWIGIAVLIGYAILFNNVVTLALAYLNPLRKARAVVLDDPNEETALVADANQVISEKKGMILPFKPLTMTFHNVNYYVDMPKEMRSQGVPETRLQLLSNVSGVFSPGVLTALVGSSGAGKTTLMDVLAGRKTGGYTEGDIRISGHPKEQQTFARISGYVEQNDIHSPQVTVEESLWFSASLRLPKEITKEQKKEFVEQVMRLVELDTLRYALVGLPGTTGLSTEQRKRLTIAVELVANPSIIFMDEPTSGLDARAAAIVMRTVRNTVDTGRTVVCTIHQPSIDIFEAFDELLLMKRGGQVIYGGKLGTHSQVLVDYFQGINGVPPISSGYNPATWMLEVTTPALEEKYNMEFADLYKKSDQFREVEANIKQLSVPPEGSEPISFTSRYSQNQLSQFLLCLWKQNLVYWRSPEYNLVRLVFTTIAAFILGTVFWDIGSKRTSSQDLITVMGALYSACLFLGVSNASSVQPIVSIERTVFYREKAAGMYAPIPYAAAQGLVEIPYILTQTILYGVITYFTIGFERTFSKFVLYLVFMFLTFTYFTFYGMMAVGLTPNQHLAAVISSAFYSLWNLLSGFLVQKPLIPVWWIWFYYICPVAWTLQGVILSQLGDVESMINEPLFHGTVKEFIEYYFGYKPNMIGVSAAVLVGFCALFFSAFALSVKYLNFQRR

binding [2]: binds
binding [3]: binds
binding (two-hybrid): binds
B4: UBC33, MbSUS fusion (enzyme, UniProt Q9FK29 1-243)
chain: MAEKACIKRLQKEYRALCKEPVSHVVARPSPNDILEWHYVLEGSEGTPFAGGFYYGKIKFPPEYPYKPPGITMTTPNGRFVTQKKICLSMSDFHPESWNPMWSVSSILTGLLSFMMDNSPTTGSVNTSVAEKQRLAKSSLAFNCKSVTFRKLFPEYVEKYSQQQVAEEEAATQQTTTSENQDFPQKDNAKVESEKSVGLKKESIQEVGLKERRRNKKEALPGWIVLLLVSIVGVVMALPLLQL

binding [2]: binds
binding [3]: binds
binding (two-hybrid): binds
B5: UBIQUITIN-CONJUGATING ENZYME 34 (UBC34), MbSUS fusion (enzyme, UniProt Q9SHI7 1-237)
chain: MAEKACIKRLQKEYRALCKEPVSHVVARPSPNDILEWHYVLEGSEGTPFAGGFYYGKIKFPPEYPYKPPGITMTTPNGRFMTQKKICLSMSDFHPESWNPMWSVSSILTGLLSFMMDTSPTTGSVNTTVIEKQRLAKSSLAFNCKTPAFRKLFPEYVEKYNQQQLAEQATTQLTTPESPQKSDTKVESEKTIDPTKGDSEGGLKERKKNNKQGLPAWIILLLVSVFGVVMALPLLQL
